{
  "source": "patent US20140011769A1",
  "about": "“Methods of Treating Retroviral Infections and Related Dosage Regimes” (Chimerix, Inc., priority 2012, published 2014)",
  "test_system": "HTLV-I",
  "test": "Co-culture assay for HTLV-I, virus replication by p19 Gag ELISA",
  "assay_type": "cell-based",
  "conditions": "following 2 weeks in culture",
  "experimental": "PBMC Preparation: Fresh human peripheral blood mononuclear cells (PBMCs), obtained from Biological Specialty Corporation, Bristol, Pa., were confirmed as seronegative for HIV and HBV. Depending on the volume of the donor blood received, the leukophoresed blood cells were washed several times with PBS. After washing, the leukophoresed blood was diluted 1:1 with Dulbecco's phosphate buffered saline (PBS) and layered over 15 mL of Ficoll-Hypaque density gradient in a 50 mL conical centrifuge tube. These tubes were then centrifuged for 30 min at 600 g. Banded PBMCs were gently aspirated from the resulting interface and subsequently washed three times with PBS by low speed centrifugation. […]\nHDP-TFV was evaluated at concentrations of 0.04, 0.2, 1 and 10 μM. AZT and tenofovir were evaluated at concentrations of 0.1, 1, 5 and 25 μM. […]\nMT-2 Preparation: MT-2 cells were obtained from the NIH AIDS Research and Reference Reagent Program and passaged in T-75 flasks in RPMI 1640 medium, supplemented with 10% heat inactivated fetal bovine serum, 2 mmol/L L-glutamine, 100 U/ml penicillin and 100 μg/ml streptomycin. Total cell and viability quantification were performed using hemocytometer and trypan blue dye exclusion. […]\nCo-Culture for HTLV-I Replication: Cell cultures were incubated at 37° C./5% CO2 for four weeks. Cell viability and density was monitored by trypan blue dye exclusion test. […]",
  "note": "Some results were stated once for a whole list of compounds, not compound by compound. For at least one compound, name, drawing or mass did not settle the structure.",
  "data": [
    {"compound": "C[C@H](Cn1cnc2c(N)ncnc21)OCP(=O)(O)O", "note": "[Tenofovir, (R)-9-(2-phosphonylmethoxypropyl)adenine]", "values": [
      {"measurement": "concentration inhibiting HTLV-I replication as measured by p19 ELISA", "value": "above 10 M"}
    ]}
  ]
}
